PubChem BioAssay AID1259424, University of Nebraska Medical Center – 2018
Assay: 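Find knockdowns that reproduce the expression shifts seen after KSR1 loss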 (primary screen). Cells: human HCT116 colon cancer cells. Reagent: siRNA pool against human genes, 50 nM. Detection: 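Log2 levels of six mRNAs (branched-DNA multiplex), adjusted by two reference genes and the non-targeting median, then scored against the average KSR1 knockdown pattern as Pearson r and euclidean distance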. Reading the numbers: mean correlation with KSR1 profile: higher = expression change more like KSR1 knockdown.
Here is a random part of about 14,000 deposited reagents. 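Higher correlation or smaller distance means closer resemblance to KSR1 loss; control wells, including KSR1 knockdowns, recur on many plates.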 The numbers tell different reagents against one gene apart. Further read-outs or replicates are left out here. Reagent sequences are not shown. Not stated in the record: the time to read-out.

| Target gene | reagent no. | mean correlation with KSR1 profile |
| --- | --- | --- |
| CLEC1A | 1 | 0.236 |
| S100A4 | 1 | 0.566 |
| ZCCHC14 | 1 | -0.358 |
| DYRK4 | 1 | -0.293 |
| DNAJB4 | 1 | -0.456 |
| OR10A3 | 1 | 0.335 |
| SSPN | 1 | 0.566 |
| ANO2 | 1 | 0.1 |
| EIF5 | 1 | -0.301 |
| TMEM33 | 1 | -0.394 |
| CRY2 | 1 | -0.312 |
| DRC9 | 1 | 0.766 |
| PXMP2 | 1 | -0.433 |
| TCL6 | 1 | 0.0374 |
| PPP1R9B | 1 | 0.177 |
| BLZF1 | 1 | -0.419 |
| IGDCC4 | 1 | 0.315 |
| SYT7 | 1 | -0.0466 |
| NXF5 | 1 | -0.209 |
| SLC39A14 | 1 | -0.0746 |
| DNASE1L1 | 1 | -0.221 |
| MT-ATP8 | 1 | -0.23 |
| HBZ | 1 | 0.807 |
| DPEP3 | 1 | -0.391 |
| ALDH7A1 | 1 | 0.0387 |
| NOL7 | 1 | -0.458 |
| PNN | 1 | -0.283 |
| PAX9 | 1 | 0.773 |
| PTTG2 | 1 | 0.532 |
| TET1 | 1 | -0.369 |
| EVA1C | 1 | -0.614 |
| GCLM | 1 | -0.152 |
| CD180 | 1 | -0.119 |
| BAK1 | 1 | 0.0666 |
| SCAF4 | 1 | -0.346 |
| GPR143 | 1 | 0.957 |
| MCTS1 | 1 | -0.198 |
| NAP1L1 | 1 | -0.0965 |
| TRIM34 | 1 | -0.617 |
| GON7 | 1 | -0.133 |
| BTN2A2 | 1 | 0.104 |
| PCDHA5 | 1 | 0.46 |
| CARD9 | 1 | -0.657 |
| LYZ | 1 | -0.468 |
| KIAA1143 | 1 | -0.042 |
| IRAK1 | 1 | 0.277 |
| TBC1D23 | 1 | -0.112 |
| KDELR3 | 1 | -0.519 |
| PDE7B | 1 | 0.341 |
| CLTB | 1 | 0.058 |
| KAT6B | 1 | -0.337 |
| NR1H3 | 1 | 0.52 |
| TRIM23 | 1 | -0.0904 |
| DLGAP5 | 1 | 0.056 |
| CCDC183 | 1 | 0.885 |
| NT5DC3 | 1 | 0.318 |
| PDS5B | 1 | 0.0504 |
| CLEC10A | 1 | -0.407 |
| BBS9 | 1 | 0.163 |
| MRPS21 | 1 | -0.255 |
| TSPAN9 | 1 | -0.363 |
| TSPAN9 | 2 | 0.278 |
| KCNQ4 | 1 | 0.0509 |
